In article PMC6811792, “The Binding Affinity of Small Molecules with Yam Tyrosinase (Catechol Oxidase): A Biophysical Study” (Biochemistry Research International, 2019):

Assays:
[1] = system: yam tyrosinase; experiment: Fluorescence spectroscopy of yam tyrosinase in presence of inhibitors; design: species or system Amorphophallus paeoniifolius; settings: excitation 270 nm; enzyme alone 307 nm
[2] = system: yam tyrosinase; experiment: Circular dichroism spectroscopy of yam tyrosinase secondary structure in presence of inhibitors; design: species or system Amorphophallus paeoniifolius; settings: CD 190-250 nm, 10 min incubation; for Β-turns, % change in secondary structure of yam tyrosinase: control 2.1; for α-helix, % change in secondary structure of yam tyrosinase: control 15.6; for β-sheet, % change in secondary structure of yam tyrosinase: control 33.8

SMILES | spectral shift of yam tyrosinase fluorescence emission [1] | Β-turns, % change in secondary structure of yam tyrosinase [2] | α-helix, % change in secondary structure of yam tyrosinase [2] | β-sheet, % change in secondary structure of yam tyrosinase [2]
CC(/C=C/C=C(\C)C(=O)O[C@@H]1O[C@H](CO[C@@H]2O[C@H](CO)[C@@H](O)[C@H](O)[C@H]2O)[C@@H](O)[C@H](O)[C@H]1O)=C\C=C\C=C(C)\C=C\C=C(/C)C(=O)O[C@@H]1O[C@H](CO[C@@H]2O[C@H](CO)[C@@H](O)[C@H](O)[C@H]2O)[C@@H](O)[C@H](O)[C@H]1O [Crocin, crocin] | no spectral shift | 4.6% | 9.5% | 36.5%
Oc1ccc(O)cc1 [Hydroquinone, hydroquinone] | red shift | 4.5% | 11.9% | 35.2%
O=c1cc(CO)occ1O [Kojic acid] | no spectral shift | 4.5% | 14.9% | 32.3%
N[C@@H](Cc1ccc(O)c(O)c1)C(=O)O [L-DOPA, L-3 dihydroxyphenylalanine] | – | 13.5% | 8.2% | 25.8%
